Assay results published in publication doi:10.1101/2021.02.18.431817.
For at least one entry, the source does not settle the construct or the ends of the probe. Where cells or extracts were used, other partners may take part.

The chains behind the UniProt entries cited, without tags or fusion partners. Where a name states a change or a piece, a line headed by the entry shows the natural chain unless it says otherwise.
UniProt Q9FX54: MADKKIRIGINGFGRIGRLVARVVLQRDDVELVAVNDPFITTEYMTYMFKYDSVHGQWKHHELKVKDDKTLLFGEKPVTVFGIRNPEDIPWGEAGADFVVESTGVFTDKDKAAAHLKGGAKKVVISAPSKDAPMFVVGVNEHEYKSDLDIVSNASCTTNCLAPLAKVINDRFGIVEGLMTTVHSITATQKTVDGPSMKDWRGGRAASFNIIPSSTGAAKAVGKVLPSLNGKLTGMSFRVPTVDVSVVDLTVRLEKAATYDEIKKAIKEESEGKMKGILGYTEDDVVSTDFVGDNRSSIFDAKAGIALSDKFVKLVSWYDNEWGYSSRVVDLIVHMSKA

Target: GAPC2 (leaf extract, MALDI-TOF) (Arabidopsis thaliana) (UniProt Q9FX54)
Test: pull-down, MALDI-TOF
Settings: protein in an extract

AUAUAUUCUCCGGAGAA [M1-RNA (consensus)]: binds.
